Assay results as given in PMC6705763.
No constants are given. Whether binding was seen depends on the method and setting. For part of these data: In cells and extracts the contact can be indirect. Some binding calls cover weakened binding; strength is not graded here. Where a sequence is shown, tags or fusion partners need not be part of it.

B1: OsMADS2 (pGADT7 prey) (protein, UniProt Q40702 1-209)
chain: MGRGKIEIKRIENSTNRQVTFSKRRSGILKKAREISVLCDAEVGVVIFSSAGKLYDYCSPKTSLSRILEKYQTNSGKILWDEKHKSLSAEIDRIKKENDNMQIELRHLKGEDLNSLQPKELIMIEEALDNGIVNVNDKLMDHWERHVRTDKMLEDENKLLAFKLHQQDIALSGSMRDLELGYHPDRDFAAQMPITFRVQPSHPNLQENN
B2: OsEXPB4 (pGADT7 prey) (protein, UniProt Q94LR4 1-286)
chain: MGSLSSLAAAAVFLSLLAVGHCAAADFNATDADADFAGNGVDFNSSDAAVYWGPWTKARATWYGQPNGAGPDDNGGACGFKHTNQYPFMSMTSCGNQPLFKDGKGCGSCYKIRCTKDQSCSGRSETVIITDMNYYPVAPFHFDLSGTAFGRLAKPGLNDKLRHSGIIDIEFTRVPCEFPGLKIGFHVEEYSNPVYFAVLVEYEDGDGDVVQVDLMESKTAHGPPTGRWTPMRESWGSIWRLDTNHRLQAPFSIRIRNESGKTLVANNVIPANWRPNTFYRSFVQYS
B3: cYFP-OsMADS2 (pCAMBIA2300S-YC) (protein, UniProt Q40702 1-209)
chain: B1 chain
B4: cYFP-OsMADS4 (pCAMBIA2300S-YC) (protein, UniProt Q40703 1-215)
chain: MGRGKIEIKRIENSTNRQVTFSKRRAGILKKAREIGVLCDAEVGVVIFSSAGKLSDYCTPKTTSVFPPLSRILEKYQTNSGKILWDEKHKSLSAEIDRVKKENDNMQIELRHMKGEDLNSLQPKELIAIEEALNNGQANLRDKMMDHWRMHKRNEKMLEDEHKMLAFRVHQQEVELSGGIRELELGYHHDDRDFAASMPFTFRVQPSHPNLQQEK
B5: cYFP-OsPP2C09 (pCAMBIA2300S-YC) (protein, UniProt Q5N9N2 1-414)
chain: MAEICCEEAMSPPATATAAVAAAVSASAAAAVSSAIDRRRRRMEMRRIRIASDLELQAGEDGRPGKRQRLARTASGAPRPDEDSASERPSCGRTEEFPRYGVTAVCGRRREMEDAVSIRPDFLPASGKFHFYGVFDGHGCSHVATTCQDRMHEIVAEEHNKGASGEVAPWRDVMEKSFARMDGEVGNRASTRSDDEPACPCEQQTPSRRDHAGSTAVVAVVSPTQVVVANAGDSRAVISRAGVPVALSVDHKPDRPDELERIEAAGGRVIYWDGARVLGVLAMSRAIGDGYLKPYVTSEPEVTVTERTDDDECLILASDGLWDVVTNEMACEVVRACFHNNGPPAPAARPSGVPSSAEAAETENGGAASVKGISKAESSDKACSDAAMLLTKLALARRSADNVSVVVVDLRRGL
B6: OsMADS4 (pGADT7 prey) (protein, UniProt Q40703 1-215)
chain: B4 chain
B7: cYFP-OsEXPB4 (pCAMBIA2300S-YC) (protein, UniProt Q94LR4 25-286)
chain: ADFNATDADADFAGNGVDFNSSDAAVYWGPWTKARATWYGQPNGAGPDDNGGACGFKHTNQYPFMSMTSCGNQPLFKDGKGCGSCYKIRCTKDQSCSGRSETVIITDMNYYPVAPFHFDLSGTAFGRLAKPGLNDKLRHSGIIDIEFTRVPCEFPGLKIGFHVEEYSNPVYFAVLVEYEDGDGDVVQVDLMESKTAHGPPTGRWTPMRESWGSIWRLDTNHRLQAPFSIRIRNESGKTLVANNVIPANWRPNTFYRSFVQYS
B8: OsMADS16-Flag (pCAMBIA2300-OsMADS16-Flag) (protein, UniProt Q944S9 1-224)
chain: MGRGKIEIKRIENATNRQVTYSKRRTGIMKKARELTVLCDAQVAIIMFSSTGKYHEFCSPSTDIKGIFDRYQQAIGTSLWIEQYENMQRTLSHLKDINRNLRTEIRQRMGEDLDGLEFDELRGLEQNVDAALKEVRHRKYHVITTQTETYKKKVKHSYEAYETLQQELGLREEPAFGFVDNTGGGWDGGAGAGAAADMFAFRVVPSQPNLHGMAYGGNHDLRLG
B9: OsPP2C09 (pGADT7 prey) (protein, UniProt Q5N9N2 1-414)
chain: B5 chain

Experiments:
[1] = molecular target: T1, OsMADS16 (pGBKT7-OsMADS16, GAL4 DNA-binding domain fusion) (rice (Oryza sativa L.)) (UniProt Q944S9); assay: two-hybrid; yeast AH109 cotransformed with pGBKT7-OsMADS16 (bait) and pGADT7 with the full-length CDS of each candidate (prey); selected on SD/-Leu/-Trp/-His and higher stringency SD/-Leu/-Trp/-His/-Ade plates
T1 sequence: B8 chain

[2] = molecular target: T2, nYFP-OsMADS16 (pCAMBIA1300S-YN-OsMADS16) (rice (Oryza sativa L.)) (UniProt Q944S9); assay: split reporter; BiFC in rice protoplasts; OsMADS16 in pCAMBIA1300S-YN, candidates in pCAMBIA2300S-YC; PEG-mediated transfection; confocal microscopy; H2B as nuclear marker
T2 sequence: B8 chain

[3] = molecular target: T3, GFP-OsEXPB4 (pCXSN-nGFP) (rice (Oryza sativa L.)) (UniProt Q94LR4); assay: co-IP; rice protoplasts cotransformed with pCAMBIA2300-OsMADS16-Flag and pCXSN-nGFP-candidate; lysate bound to GFP-Nanoab-Agarose 2 h at 4°C, washed four times; western blot with anti-Flag or anti-GFP
T3 sequence: B7 chain

[4] = molecular target: T4, GFP-OsMADS2 (pCXSN-nGFP) (rice (Oryza sativa L.)) (UniProt Q40702); assay: as above
T4 sequence: B1 chain

[5] = molecular target: T5, GFP-OsMADS4 (pCXSN-nGFP) (rice (Oryza sativa L.)) (UniProt Q40703); assay: as above
T5 sequence: B4 chain

[6] = molecular target: T6, GFP-OsPP2C09 (pCXSN-nGFP) (rice (Oryza sativa L.)) (UniProt Q5N9N2); assay: as above
T6 sequence: B5 chain

Binder	binding [1]	binding [2]	further results
B1	binds	–	–
B2	binds	–	–
B3	–	binds	–
B4	–	binds	–
B5	–	binds	–
B6	binds	–	–
B7	–	binds	–
B8	–	–	binding [3]: binds; binding [4]: binds; binding [5]: binds; binding [6]: binds
B9	binds	–	–
